Some compounds share one wording; it may come from a single statement.
How the values were obtained:
[1] = Color tone evaluation of ink image samples (chromaticity L*a*b*); details: ink (17 parts compound in 120 parts styrene) bar-coated on paper; interpolated to L* of 60
[2] = Saturation evaluation of ink image samples; details: ink bar-coated on paper (Bar No. 10); for c* with bar coater No. 10: c* = {(a*)^2+(b*)^2}^1/2

Structure (SMILES) | a* at L* = 60 [1] | b* at L* = 60 [1] | saturation evaluation with bar coater No. 10 [2] | c* with bar coater No. 10 [2]
C=C(C)C(=O)Nc1c(C)cc(C)c(N=c2ccc3c(-c4ccccc4S(=O)(=O)O)c4ccc(Nc5c(C)cc(C)c(NC(=O)C(=C)C)c5C)cc4oc-3c2)c1C [(21)] | 78.6 | −16.0 | A (c* is 80 or more (the saturation is excellent)) | 82.1
CC(=O)Nc1c(C)cc(C)c(N=c2ccc3c(-c4ccccc4S(=O)(=O)O)c4ccc(Nc5c(C)c(NC(C)=O)c(C)c(NC(C)=O)c5C)cc4oc-3c2)c1C [(13)] | 80.2 | −16.0 | A (c* is 80 or more (the saturation is excellent)) | 84.0
CCc1ccc(NC(C)=O)c(CC)c1Nc1ccc2c(-c3ccccc3S(=O)(=O)O)c3ccc(=Nc4c(C)ccc(NC(C)=O)c4C)cc-3oc2c1 [(15)] | 80.5 | −15.7 | A (c* is 80 or more (the saturation is excellent)) | 84.4
CC(=O)Nc1c(C)cc(C)c(N=c2ccc3c(-c4ccccc4S(=O)(=O)O)c4ccc(Nc5c(C)cc(C)c(NC(C)=O)c5C)cc4oc-3c2)c1C [Compound (5)] | 80.8 | −16.2 | A (c* is 80 or more (the saturation is excellent)) | 85.2
Cc1cc(C)c(NC(=O)c2ccccc2)c(C)c1N=c1ccc2c(-c3ccccc3S(=O)(=O)O)c3ccc(Nc4c(C)cc(C)c(NC(=O)c5ccccc5)c4C)cc3oc-2c1 [Compound (10)] | 78.9 | −15.9 | A (c* is 80 or more (the saturation is excellent)) | 82.5
Cc1ccc(/N=N/c2c(O)c(C(=O)O)cc3ccccc23)c(S(=O)(=O)O)c1 [(3), reference compound] | 64.0 | −9.6 | C (c* is less than 70 (the saturation is poor)) | 67.2
CC(=O)Nc1ccc(C)c(N=c2ccc3c(-c4ccccc4S(=O)(=O)O)c4ccc(Nc5c(C(C)C)ccc(NC(C)=O)c5C(C)C)cc4oc-3c2)c1C [(16)] | 79.2 | −16.4 | A (c* is 80 or more (the saturation is excellent)) | 85.2
Cc1cc(C)c(NC(=O)C(C)C)c(C)c1N=c1ccc2c(-c3ccccc3S(=O)(=O)O)c3ccc(Nc4c(C)cc(C)c(NC(=O)C(C)C)c4C)cc3oc-2c1 [Compound (8)] | 81.6 | −15.8 | A (c* is 80 or more (the saturation is excellent)) | 83.5
CCOC(=O)c1ccccc1C(=O)Nc1c(C)cc(C)c(N=c2ccc3c(-c4ccccc4S(=O)(=O)O)c4ccc(Nc5c(C)cc(C)c(NC(=O)c6ccccc6C(=O)OCC)c5C)cc4oc-3c2)c1C [(12)] | 80.8 | −15.8 | A (c* is 80 or more (the saturation is excellent)) | 83.9
CCCCCCCCCCCCCCCCCC(=O)Nc1c(C)cc(C)c(N=c2ccc3c(-c4ccccc4S(=O)(=O)O)c4ccc(Nc5c(C)cc(C)c(NC(=O)CCCCCCCCCCCCCCCCC)c5C)cc4oc-3c2)c1C [(23)] | 79.6 | −17.2 | A (c* is 80 or more (the saturation is excellent)) | 80.9
CC(=O)Nc1c(C)c(N=c2ccc3c(-c4ccccc4S(=O)(=O)O)c4ccc(Nc5c(C)c(NC(C)=O)c(C)c(NC(C)=O)c5C)cc4oc-3c2)c(C)c(NC(C)=O)c1C [(11)] | 80.1 | −16.3 | A (c* is 80 or more (the saturation is excellent)) | 84.5
CCOc1cc(C)c(N=c2ccc3c(-c4ccccc4S(=O)(=O)O)c4ccc(Nc5c(C)cc(OCC)c(NC(C)=O)c5C)cc4oc-3c2)c(C)c1NC(C)=O [(18)] | 81.2 | −15.5 | A (c* is 80 or more (the saturation is excellent)) | 84.6
Nc1c(Oc2ccccc2)cc(O)c2c1C(=O)c1ccccc1C2=O [(2), reference compound] | 66.1 | −1.7 | B (c* is 70 or more and less than 80 (the saturation is good)) | 76.9
CCCC(=O)Nc1c(C)cc(C)c(N=c2ccc3c(-c4ccccc4S(=O)(=O)O)c4ccc(Nc5c(C)cc(C)c(NC(=O)CCC)c5C)cc4oc-3c2)c1C [Compound (7)] | 81.4 | −16.3 | A (c* is 80 or more (the saturation is excellent)) | 85.1
CCC(=O)Nc1c(C)cc(C)c(N=c2ccc3c(-c4ccccc4S(=O)(=O)O)c4ccc(Nc5c(C)cc(C)c(NC(=O)CC)c5C)cc4oc-3c2)c1C [Compound (6)] | 80.5 | −16.0 | A (c* is 80 or more (the saturation is excellent)) | 85.6
Cc1cc(C)c(NC(=O)c2cccnc2)c(C)c1N=c1ccc2c(-c3ccccc3S(=O)(=O)O)c3ccc(Nc4c(C)cc(C)c(NC(=O)c5cccnc5)c4C)cc3oc-2c1 [(22)] | 77.9 | −16.5 | A (c* is 80 or more (the saturation is excellent)) | 81.7
CCc1ccc(NC(C)=O)c(CC)c1N=c1ccc2c(-c3ccccc3S(=O)(=O)O)c3ccc(Nc4c(CC)ccc(NC(C)=O)c4CC)cc3oc-2c1 [(14)] | 79.9 | −15.7 | A (c* is 80 or more (the saturation is excellent)) | 83.5
CCN(CC)c1ccc2c(c1)Oc1cc(N(CC)CC)ccc1C21OC(=O)c2ccccc21 [(1), reference compound] | 86.2 | −34.3 | A (c* is 80 or more (the saturation is excellent)) | 88.9
